Test results: PubChem BioAssay AID901 (National Center for Advancing Translational Sciences (NCATS), 2007)
The other results are listed elsewhere or left out. Further columns of the screen follow, without active or inactive calls. Most of these compounds were active or inconclusive in the main read-out, so they are no random draw. Words in brackets tell the shape of the fitted curve; partial curves, single points and poor fits give uncertain potencies.

assay: qHTS Assay for Identifying the Cell-Membrane Permeable IMPase Inhibitors; details: CHO-M1 cells, IP1 accumulation, HTRF TR-FRET ratio; measured here: donor channel 620 nm AC50

Q: For O=C(Cn1ncc2c1-c1ccccc1OC2)N1CCN(c2ccccn2)CC1, which AC50 is on record?
A: 0.126 µM [rising, single point]

Q: With Cc1cccc(N2CCN(C(=O)Cn3cnc4c3c(=O)n(C)c(=O)n4C)CC2)c1C as the compound, how does the AC50 read?
A: 0.158 µM [falling, full curve, poor fit]

Q: For Cc1cc(C)cc(N(CC(=O)NCc2ccco2)C(=O)CCC(=O)Nc2ccccn2)c1, which AC50 is on record?
A: 0.0398 µM [falling, full curve, poor fit]

Q: With CCCCNc1c2c3c(cccc3n(C)c1=O)C(=O)c1ccccc1-2 as the compound, how does the AC50 read?
A: 15.8 µM [rising, single point]

Q: For Cc1cccc(N(CC(=O)N2CCCC2)S(=O)(=O)c2ccccc2)c1C, which AC50 is on record?
A: 28.2 µM [rising, single point]

Q: With CC1SC(c2cccc(Cl)c2)NC1=O (stereo unspecified) as the compound, how does the AC50 read?
A: 6.31 µM [falling, full curve, poor fit]

Q: With CCOC(=O)CSc1nc(-c2ccc3c(c2)OCO3)ccc1C#N as the compound, how does the AC50 read?
A: 10 µM [falling, partial curve, poor fit]

Q: For COc1ccccc1C(=O)NC(CCSC)C(=O)NCC(c1ccco1)N(C)C (stereo unspecified), which AC50 is on record?
A: 12.6 µM [falling, single point]

Q: With CCOC(=O)c1c(C)nc2c(c1C)c(=O)oc1ccccc12 as the compound, how does the AC50 read?
A: 0.501 µM [falling, single point]

Q: Which AC50 does the source give for CCn1c(SCC(=O)N2CCCCC2)nc2c(c1=O)SC(C)C2 (stereo unspecified) here?
A: 0.00501 µM [falling, full curve]

Q: Which AC50 does the source give for CCCC(=O)Nc1ccc(NC(=O)c2ccccc2Cl)nc1 here?
A: 0.2 µM [falling, full curve]

Q: With CC(=O)C(Sc1nc(N2CCOCC2)nc(N2CCOCC2)n1)C(=O)Nc1ccccc1 (stereo unspecified) as the compound, how does the AC50 read?
A: 1.58 µM [rising, partial curve, poor fit]

Q: For COC(=O)CSc1cc(SCC(=O)OC)c(C#N)c(SCC(=O)OC)c1, which AC50 is on record?
A: 0.0158 µM [falling, full curve, poor fit]

Q: Which AC50 does the source give for O=C(NCC(=O)N(c1cnc2ccccc2c1)C(C(=O)NC1CCCC1)c1ccncc1)c1ccco1 (stereo unspecified) here?
A: 31.6 µM [rising, single point]

Q: Which AC50 does the source give for COCn1c(COc2ccc3ccccc3c2)nc2ccccc21 here?
A: 31.6 µM [falling, single point]

Q: With COC(=O)c1ccc(NC(=O)CCN2CCCCC2)cc1 as the compound, how does the AC50 read?
A: 25.1 µM [falling, single point]

Q: With CCCOc1ccc2c(=O)c(-c3cc(C(=O)OC)oc3C)c(C)oc2c1 as the compound, how does the AC50 read?
A: 5.01 µM [falling, single point]

Q: For CCCC(NS(=O)(=O)c1ccc(OC)cc1)C(=O)O (stereo unspecified), which AC50 is on record?
A: 0.0126 µM [rising, partial curve, poor fit]

Q: For COc1cc(S(=O)(=O)N(Cc2cccs2)CC2CCCO2)ccc1-n1cnnn1 (stereo unspecified), which AC50 is on record?
A: 0.02 µM [falling, full curve]

Q: Which AC50 does the source give for CCN(CC)S(=O)(=O)c1ccc(OC)c(NC(=O)c2sc3ccccc3c2Cl)c1 here?
A: 0.224 µM [rising, full curve, poor fit]

Q: For Cc1nc2sc3c(c2c(=O)o1)CCCC3, which AC50 is on record?
A: 3.98 µM [falling, single point]

Q: Which AC50 does the source give for CCOc1cc2oc(=O)c3c(c2cc1Cl)CCC3 here?
A: 31.6 µM [rising, single point]

Q: Which AC50 does the source give for CCC/C(=N\NC(=O)CNC(=O)/C=C/c1ccco1)c1ccccc1 here?
A: 15.8 µM [falling, single point]

Q: For O=C(CN1CCC(NC(=O)c2cccc(F)c2)CC1)NCc1ccccc1F, which AC50 is on record?
A: 0.251 µM [falling, full curve, poor fit]

Q: With Cc1ccc(-n2ncc(C(=O)N3CCc4ccccc4C3)c2NC(=O)c2ccco2)cc1C as the compound, how does the AC50 read?
A: 0.794 µM [falling, full curve]

Q: With COc1ccc(OC)c(NC(=O)C23CCC(C)(C(=O)C2)C3(C)C)c1 (stereo unspecified) as the compound, how does the AC50 read?
A: 11.2 µM [falling, partial curve, poor fit]

Q: With CC(=O)Nc1ccc(S(=O)(=O)CCC#N)cc1 as the compound, how does the AC50 read?
A: 0.0794 µM [rising, partial curve, poor fit]

Q: Which AC50 does the source give for CCc1nnc(NC(=O)c2cccc(NC(=O)C(C)C)c2)s1 here?
A: 2.51 µM [rising, partial curve, poor fit]

Q: For COc1ccc(CNC(=O)CSc2nnnn2Cc2ccccc2)cc1, which AC50 is on record?
A: 1.26 µM [falling, partial curve]

Q: With O=c1cc(-c2ccc(O)cc2)oc2cc(O)cc(O)c12 as the compound, how does the AC50 read?
A: 3.98 µM [falling, partial curve]

Q: For Fc1ccc(CNc2nc3ccccc3n3nnnc23)cc1, which AC50 is on record?
A: 31.6 µM [rising, single point]

Q: For O=C(NNC1=C(C(=O)C(F)(F)F)CCC1)c1cccc(O)c1, which AC50 is on record?
A: 0.2 µM [rising, single point]

Q: For CCOC(=O)c1cccc(NC(=O)CSc2nnc(CNc3ccc(C)cc3)n2CC)c1, which AC50 is on record?
A: 0.0224 µM [falling, full curve, poor fit]

Q: For CCc1ccc(-n2c(SCc3c(C)noc3C)nnc2-c2ccncc2)cc1, which AC50 is on record?
A: 0.126 µM [falling, full curve, poor fit]

Q: For CC(=O)C(N=Nc1ccccc1)(Sc1nnc(-c2ccccc2)n1-c1ccccc1)C(C)=O, which AC50 is on record?
A: 10 µM [falling, partial curve]

Q: With c1csc(-c2nn[nH]n2)c1 as the compound, how does the AC50 read?
A: 31.6 µM [falling, single point]

Q: Which AC50 does the source give for COc1ccc(CCNC(=O)COc2ncnc3cc([N+](=O)[O-])ccc23)cc1 here?
A: 0.0158 µM [falling, full curve]

Q: Which AC50 does the source give for O=C(Nc1ccc2c(c1)OCCO2)C1CCCN1S(=O)(=O)c1ccc(Cl)cc1 (stereo unspecified) here?
A: 0.794 µM [falling, partial curve]

Q: Which AC50 does the source give for Cc1sc(NC(=O)CSc2ncn(-c3ccccc3)n2)nc1-c1ccccc1 here?
A: 3.16 µM [falling, partial curve]

Q: For COc1ccc(Cl)cc1NC(=O)NCCCl, which AC50 is on record?
A: 31.6 µM [rising, single point]

Q: For COc1cc(CO)ccc1Oc1nnnn1-c1ccc(C(N)=O)cc1, which AC50 is on record?
A: 0.158 µM [falling, full curve, poor fit]

Q: Which AC50 does the source give for O=C1c2ccccc2C(=O)N1CC(=O)N1c2ccccc2Sc2ccc(C(F)(F)F)cc21 here?
A: 5.01 µM [rising, single point]

Q: For CC(=O)n1nc(-c2cccnc2)nc1N, which AC50 is on record?
A: 0.0126 µM [rising, full curve, poor fit]

Q: For Nn1c(SCC(=O)Nc2ccc3c(c2)OCO3)nnc1-c1ccncc1, which AC50 is on record?
A: 0.02 µM [falling, full curve, poor fit]

Q: With O=c1cc(-c2ccccc2)oc2cc(O[C@@H]3O[C@H](CO)[C@@H](O)[C@H](O)[C@H]3O)c(O)c(O)c12 as the compound, how does the AC50 read?
A: 12.6 µM [falling, partial curve]

Q: Which AC50 does the source give for CCOC(=O)N1CCC(NC(=O)c2sc3nc4n(c(=O)c3c2C)CCCC4)CC1 here?
A: 31.6 µM [rising, single point]

Q: For CCn1c(CNC(=O)COc2ccc(C(C)C)cc2)nnc1SCC(=O)NC1CCCCC1C (stereo unspecified), which AC50 is on record?
A: 6.31 µM [falling, single point]

Q: Which AC50 does the source give for CNC(=O)c1cc2cc(OC)ccc2n1CCN(C)C here?
A: 0.158 µM [rising, full curve]

Q: For O=C(c1ccc(Br)o1)N1CCN(C/C=C/c2ccccc2)CC1, which AC50 is on record?
A: 1 µM [falling, full curve, poor fit]

Q: Which AC50 does the source give for COc1ccc(OC)c(NC(=O)N[C@@H](Cc2ccccc2)C(=O)O)c1 here?
A: 0.02 µM [falling, full curve, poor fit]

Q: For CCOC(=O)c1c(N=CN(C)C)c(C#N)c2n1CCCC2, which AC50 is on record?
A: 0.0251 µM [falling, full curve, poor fit]

Q: For CCOc1ccc2[nH]c(S(=O)(=O)CC)nc2c1Cl, which AC50 is on record?
A: 0.447 µM [falling, full curve]

Q: For O=C(Nc1ccc(Cl)c(-c2nc3cc(Cl)ccc3o2)c1)c1cc2ccccc2o1, which AC50 is on record?
A: 5.62 µM [falling, single point]

Q: With COc1ccc(CCNc2oc(COc3ccccc3F)nc2C#N)cc1OC as the compound, how does the AC50 read?
A: 3.98 µM [rising, partial curve, poor fit]

Q: For CCCc1ccc(C(=O)NNC(=O)c2ccc(Cl)cc2)cc1, which AC50 is on record?
A: 10 µM [falling, partial curve, poor fit]

Q: With COc1cccc(OC)c1C(=O)Nc1ccc(S(=O)(=O)Nc2nccc(C)n2)cc1 as the compound, how does the AC50 read?
A: 0.316 µM [falling, full curve]

Q: With CCN(CC)CCN1C(=O)C2C3c4ccccc4C(c4ccccc43)C2C1=O (stereo unspecified) as the compound, how does the AC50 read?
A: 3.16 µM [falling, single point]

Q: With COC(=O)c1ccc(SCC(=O)NC2CCCCC2)c([N+](=O)[O-])c1 as the compound, how does the AC50 read?
A: 25.1 µM [rising, single point]

Q: Which AC50 does the source give for CCN(CCCNC(=O)c1ccc(N2CCCC2=O)cc1)c1cccc(C)c1 here?
A: 0.0158 µM [rising, full curve, poor fit]

Q: Which AC50 does the source give for Cc1cccc(-c2nc3c(c(SCC(N)=O)n2)CCCC3)c1 here?
A: 0.251 µM [rising, partial curve]

Q: With CCCCSc1cnn(-c2ccccc2)c(=O)c1SCCCC as the compound, how does the AC50 read?
A: 20 µM [rising, single point]

Q: With COc1ccc(-c2nnc(SCC(=O)c3[nH]c(C)c(C(C)=O)c3C)o2)cc1 as the compound, how does the AC50 read?
A: 0.631 µM [falling, partial curve, poor fit]

Q: Which AC50 does the source give for O=c1c(O)c(-c2ccc(O)c(O)c2)oc2c(OC[C@@H]3O[C@@H](O)[C@@H](O)[C@H](O)[C@H]3O)c(O)cc(O)c12 here?
A: 15.8 µM [falling, partial curve, poor fit]

Q: For COc1ccc(N2CCN(CCCNC(=O)CN3CCN(Cc4ccccc4C)C3=O)CC2)cc1, which AC50 is on record?
A: 5.01 µM [falling, single point]

Q: For CC(=O)c1ccc(NC(=S)N2C(C)CCCC2C)cc1 (stereo unspecified), which AC50 is on record?
A: 2.51 µM [rising, single point]

Q: Which AC50 does the source give for NC(=O)COC(=O)c1ccc(Oc2ccccc2)cc1 here?
A: 6.31 µM [falling, single point]
